# Assay results taken from PubChem BioAssay AID504444 (National Center for Advancing Translational Sciences (NCATS), 2011).
# Values joined by “and” are separate entries in the source; they are usually repeats but may differ in a detail not shown here. Equal values may be shown once. In all, about 360,000 compounds went through this assay and about 7,500 (2.1%) were called active. Inconclusive means that the source gave no clear call. Such entries were picked first, then a sample of the others. The call rests on the fitted dose curve; in most records, active means well fitted inhibition curve with a large enough effect; inconclusive means small, poorly fitted or top-dose-only effect, or effect the other way; inactive means flat fitted curve, though single readings scatter. Potencies beside an inconclusive call are fits to weak or partial responses and may not hold up.
# Assay: Nrf2 qHTS screen for inhibitors; further: nearly all actives have a fitted effect of over 60% in size
# Settings: A549 ARE-Fluc reporter, luciferase luminescence, 18-24 h; series mostly up to 46 µM
# Method in brief: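 A549 ARE_Fluc cells (5000/well, 5% FBS OPTI-MEM) pre-incubated 2 h, then treated with compounds 18-24 h at 37C/5% CO2 in concentration-response. CellTiter-Fluor viability read first; BugLite luciferase luminescence after 15 min at room temperature gives Nrf2 activity.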
# Potency means the concentration at half of the fitted maximal effect.
row,SMILES,Potency
1,CCCOc1ccc(-c2nnn(CC(=O)N3CCCC(C)C3)n2)cc1 (stereo not drawn),"inconclusive: 23.1 µM [falling, partial curve, poor fit]"
2,CC(C)(C)n1c(O)c2ccc(C(=O)N=NC(=O)c3ccccc3)cc2c1O,"inconclusive: 6.51 µM [activator, partial curve, poor fit]"
3,Cc1ccsc1/C=N/N1CCN(Cc2ccccc2)CC1,"inconclusive: 18.4 µM [activator, single point]"
4,Cc1ccccc1-c1nc(CS(=O)(=O)CC(=O)NCCCc2ccccc2)c(C)o1,active: 20.6 µM
5,CCCOc1cccc(C2c3c(oc4ccc(F)cc4c3=O)C(=O)N2CCc2ccc(OC)cc2)c1 (stereo not drawn),inactive
6,CCn1nc(C(=O)NNC(=O)COc2ccc(OC)cc2)c2ccccc2c1=O,"inconclusive: 13 µM [falling, partial curve, poor fit]"
7,c1ccc(CNc2ncnc3ccccc23)cc1,active: 6.51 µM and active: 4.61 µM
8,COc1ccc(/C=C2\S/C(=N/S(=O)(=O)c3cccs3)NC2=O)cc1,"inconclusive: 13 µM [falling, partial curve, poor fit]"
9,O=C(Nc1cccc(Cl)c1)N(Cc1nc2ccccc2c(=O)[nH]1)Cc1cccs1,"inconclusive: 29.1 µM [falling, single point]"
10,O=C(NC(=S)Nc1ccccc1C(=O)O)c1ccc2ccccc2c1,"inconclusive: 0.731 µM [activator, full curve, poor fit]"
11,COc1ccc(C2CC(=O)Oc3cc(C)cc(C)c32)cc1 (stereo not drawn),"inconclusive: 25.9 µM [activator, partial curve, poor fit]"
12,N=c1n(Cc2ccccc2)c2ccccc2n1CC(O)COc1ccccc1 (stereo not drawn),"inconclusive: 10.3 µM [falling, partial curve, poor fit]"
13,Nc1c(C(=O)NCC2CCCO2)sc(=S)n1-c1ccccc1 (stereo not drawn),"inconclusive: 18.4 µM [activator, partial curve, poor fit]"
14,O=C1NC[C@@H](Cc2ccc(O)cc2)N(CCc2cccc3ccccc23)C1=O,"inconclusive: 3.66 µM [falling, single point]"
15,Nc1ccc(-c2nc3ccc([N+](=O)[O-])cc3[nH]2)cc1,"inconclusive: 0.58 µM [activator, full curve]"
16,Cc1ccc(Cl)cc1N1CCN(C(=O)Cn2nc(C)c3sc4ccccc4c3c2=O)CC1,"inconclusive: 29.1 µM [falling, single point]"
17,O=C(c1ncn(Cc2ccccc2)c1C(=O)N1CCN(c2ccccc2)CC1)N1CCN(c2ccccc2)CC1,"inconclusive: 4.11 µM [activator, single point]"
18,O=C(Nc1ccc(Cl)c(S(=O)(=O)N2CCOCC2)c1)c1cc2ccccc2oc1=O,"inconclusive: 7.31 µM [activator, partial curve]"
19,COc1cccc(C(=O)Nc2cccc(C(C)=O)c2)c1,"inconclusive: 5.17 µM [activator, partial curve, poor fit]"
20,CCOC(=O)c1ccc(N2C(=O)c3[nH]nc(-c4ccc(OC)cc4)c3C2c2cccc(O)c2)cc1 (stereo not drawn),"inconclusive: 16.4 µM [falling, single point]"
21,Cc1ccc(-c2noc(CCCC(=O)NCC3CCCO3)n2)cc1 (stereo not drawn),"inconclusive: 20.6 µM [falling, single point]"

# Taken from above:
# For Potency, O=C(Nc1cccc(Cl)c1)N(Cc1nc2ccccc2c(=O)[nH]1)Cc1cccs1 has the entry inconclusive: 29.1 µM [falling, single point]
# For Potency, Cc1ccc(-c2noc(CCCC(=O)NCC3CCCO3)n2)cc1 (stereo not drawn) has the entry inconclusive: 20.6 µM [falling, single point]
# For Potency, Cc1ccc(Cl)cc1N1CCN(C(=O)Cn2nc(C)c3sc4ccccc4c3c2=O)CC1 has the entry inconclusive: 29.1 µM [falling, single point]

# Next part

row,SMILES,Potency
1,COc1ccc(-c2oc3ccccc3c2C#Cc2cncn2C)cc1,"inconclusive: 9.2 µM [activator, partial curve]"
2,CC(=O)N1c2ccc(S(=O)(=O)N3CCC(C(=O)N4CCCC(C)C4)CC3)cc2CC1C (stereo not drawn),active: 16.4 µM
3,Oc1ccc(CNc2cccc(F)c2)c2cccnc12,"inconclusive: 23.1 µM [falling, single point]"
4,C/C=C/c1ccc(OCC(=O)OCc2csc(Nc3ccc(C)cc3)n2)c(OC)c1,"inconclusive: 7.31 µM [activator, partial curve]"
5,O=C(Nc1ccc(N2CCOCC2)nc1)c1ccc(Cl)cc1,active: 20.6 µM
6,COc1ccccc1NC(=O)Cn1nnc(C(=O)NCc2cccs2)c1N,"inconclusive: 8.2 µM [activator, partial curve] and inconclusive: 2.59 µM [activator, partial curve, poor fit]"
7,COc1ccc(S(=O)(=O)/C(C#N)=C/Nc2cccc(F)c2)cc1,"inconclusive: 20.6 µM [falling, partial curve, poor fit]"
8,O=c1cc(COc2ccccc2Cl)nc2scc(-c3ccccc3)n12,inactive
9,Cc1ccc2cc3cc(C(=O)NCCC(C)C)oc3nc2c1,"inconclusive: 23.1 µM [falling, single point]"
10,O=C(Cn1cnc2cc([N+](=O)[O-])ccc2c1=O)Nc1cccc(S(=O)(=O)N2CCCCC2)c1,"inconclusive: 29.1 µM [falling, single point]"
11,COc1cccc(C(=O)Nc2ccc(C3CC3(Cl)Cl)cc2)c1 (stereo not drawn),"inconclusive: 9.2 µM [activator, single point]"
12,c1ccc2nc3c(ccc4ccccc43)cc2c1,"inconclusive: 14.6 µM [activator, partial curve]"
13,CC(C)(C)C(=O)CSc1nc2ccccc2o1,"inconclusive: 14.6 µM [activator, partial curve]"
14,CC1CCCC(C)N1C(=O)COC(=O)COc1ccc(C#N)cc1 (stereo not drawn),inactive
15,O=C(Nc1ccc(Br)cc1)c1ccc2ncsc2c1,"inconclusive: 4.11 µM [activator, partial curve]"
16,CCc1ccc(NC(=O)c2cnc3c(-c4ccccc4)c(C)nn3c2C)cc1,"inconclusive: 16.4 µM [falling, partial curve, poor fit]"
17,COc1ccc(NC(=O)C2CCC(C(C)(C)C)CC2)cc1S(=O)(=O)N1CCOCC1 (stereo not drawn),"inconclusive: 20.6 µM [falling, single point]"
18,Cc1cc(C)n(CCC(=O)N/N=C/c2ccc(O)cc2O)n1,"inconclusive: 20.6 µM [falling, partial curve]"
19,CC(=O)c1ccc(NC(=O)c2ccc(-c3nc(CSc4ccc(C)cc4)c(C)o3)cc2)cc1,"inconclusive: 20.6 µM [falling, partial curve, poor fit]"
20,COC(CNC(=O)C1CCN(C(=O)c2cc3oc(C)cc3n2Cc2c(F)cccc2Cl)CC1)OC,"inconclusive: 23.1 µM [falling, partial curve, poor fit]"
21,C[C@@]12C=Cc3occc3[C@H]1CC[C@]13CC(=O)[C@@H](CC[C@H]12)C3,inactive

row,SMILES,Potency
1,O=C1CC(c2ccco2)CC2=C1C=Nc1ccccc1N2 (stereo not drawn),"inconclusive: 11.6 µM [falling, partial curve, poor fit]"
2,c1ccc(N2CCN(c3nc(-c4cccs4)nc4ccccc34)CC2)cc1,"inconclusive: 13 µM [falling, partial curve]"
3,Cc1ccc(NC(=S)NCc2ccc3[nH]c4c(c3c2)CCCC4)cc1,"inconclusive: 0.461 µM [activator, full curve]"
4,COc1ccc(NC(=O)c2ccc(-c3ccccc3Cl)o2)cc1,"inconclusive: 25.9 µM [activator, partial curve]"
5,O=C(/C=C/c1ccco1)Nc1cccc(S(=O)(=O)N2CCOCC2)c1,inactive
6,Cc1cc(C(=O)CCl)c(C)n1CCc1ccc(F)cc1,"inconclusive: 2.31 µM [falling, single point]"
7,COc1ccc(-c2nnn(CC(=O)NC3CCCc4ccccc43)n2)cc1OC (stereo not drawn),"inconclusive: 18.4 µM [falling, partial curve, poor fit]"
8,Cc1cccc2sc(NC(=O)Cn3cccc3)nc12,"inconclusive: 20.6 µM [falling, single point]"
9,O=C(/C=C/c1ccc(Br)o1)NC(c1ccccc1)c1ccccc1,active: 25.9 µM
10,COC(=O)c1c(NC(=O)Cc2coc3cc(C)cc(C)c23)sc2c1CCC2,inactive
11,Cc1ccc(NC(=O)CSc2nnc3ccc(-c4cccnc4)nn23)cc1,"inconclusive: 7.31 µM [falling, partial curve, poor fit]"
12,COCCNC(=O)c1c(NC(=O)c2cc(=O)c3cc(C)cc(C)c3o2)sc2c1CCCC2,inactive
13,COc1ccc(N2CCN(CCCNC(=O)CN3C(=O)COc4ccccc43)CC2)cc1,inactive
14,Cc1cccc(Oc2cc([N+](=O)[O-])cc3c2C(=O)Nc2ccccc2O3)c1,active: 16.4 µM
15,COc1cc(NC(=O)c2ccco2)c(OC)cc1NC(=O)Nc1cccc(Cl)c1,"inconclusive: 18.4 µM [falling, single point]"
16,C#CCOCCOCCOCCNc1nc(N2CCN(C(=O)CCCCCCCCCCNC(=O)[C@H](CCCCN)n3cc(C)nn3)CC2)nc(N2CCN(C(=O)CCCCCCCCCCNC(=O)[C@H](CCCN=C(N)N)n3cc(C[C@@H](C)CC)nn3)CC2)n1,"inconclusive: 29.1 µM [falling, single point]"
17,CS(=O)(=O)Nc1ccc(C(=O)NCCc2ccccc2)cc1,"inconclusive: 4.11 µM [activator, full curve]"
18,Cc1ccccc1CN(C)CC(=O)Nc1c(C)cccc1C(C)C,"inconclusive: 29.1 µM [activator, single point]"
19,CCCCN(C)C(=O)CSc1c2c(nc3ccc(Cl)cc13)CCCC2,"inconclusive: 29.1 µM [falling, single point]"
20,Cc1ccc(-c2noc(-c3ccccc3C(=O)N3CCCC3)n2)cc1,"inconclusive: 2.91 µM [activator, full curve, poor fit]"
21,Cc1cc([N+](=O)[O-])nn1CCCC(=O)N1CCN(c2ccc(F)cc2)CC1,"inconclusive: 14.6 µM [falling, partial curve, poor fit]"
